Experimental data reported in PubChem BioAssay AID1794845 (National Center for Advancing Translational Sciences (NCATS), 2023).
The campaign covered roughly 6,900 compounds. Fewer than 10 were called active. The call rests on the fitted dose curve; in most records, active means well fitted curve in the direction sought with a large enough effect; inconclusive means small, poorly fitted or top-dose-only effect, or another doubt; inactive means no such curve, though single readings can be large or run the other way. The list shows a part of the results.

Amino acid sequences for entries named in this document (tags omitted). A change or cut given only in a name is not applied to a line headed by its entry.
UniProt C7C422: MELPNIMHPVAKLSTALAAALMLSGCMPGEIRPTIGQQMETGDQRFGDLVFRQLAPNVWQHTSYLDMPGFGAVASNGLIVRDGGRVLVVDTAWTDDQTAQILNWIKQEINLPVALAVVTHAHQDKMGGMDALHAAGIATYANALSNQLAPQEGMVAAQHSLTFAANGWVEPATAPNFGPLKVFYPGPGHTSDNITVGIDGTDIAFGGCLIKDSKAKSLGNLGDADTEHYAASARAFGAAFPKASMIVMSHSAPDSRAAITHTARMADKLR

molecular target: Metallo-beta-lactamase type 2 (Klebsiella pneumoniae) (UniProt C7C422); experiment: qHTS to identify inhibitors of the New Delhi Metallo-beta-lactamase (NDM): primary screen against the NCATS Gemini Collection; conditions: NDM-1 enzyme, meropenem hydrolysis, absorbance 300 nm; at 38.4 µM (top of the series) unless noted; further: % of control where 0% means no effect
Outline: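 Meropenem hydrolysis (50 uM final) by 2 nM NDM-1 read as 300 nm absorbance after 30 min, following >30 min compound–enzyme preincubation in HEPES pH 7.0 with 1 uM ZnSO4 and 0.01% Tween20.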

Activity % (negative = inhibition), inactive:
Cc1ncc2n1C(=O)N(C1CCN(C(=O)NC3CCCC3)CC1)C2 -4.48% [at 57.5 µM]
O=C(N[C@@H]1CN(C(=O)Nc2ccc(F)cc2)CCC[C@H]1O)c1ccc(OCCN2CCCC2)cc1 18.9%
CNC(=O)c1[nH]nc2c1C(c1cc(OC)ccc1-n1cccn1)CC(=O)N2 (centres undefined) -4.76%
CN1CCCC2(C1)CN(C)c1ccc(C(=O)NCC3CCCCC3)cc12 (centres undefined) 13% [at 57.5 µM]
Cc1noc(C)c1S(=O)(=O)N1CC(C(=O)NC2CCCCC2)C2(CCOCC2)C1 (centres undefined) -6.52%
O=C(NC1CCCCC1)[C@@H]1C[C@@H](O)CN1C1CCN(C(=O)c2ccccc2F)CC1 0.659%
CCc1nccn1Cc1nnc(C2CC(N)C2)n1CCOC (centres undefined) 1.49%
O=C(NCCNC(=O)c1ccccc1F)c1ccc(-c2cncnc2)cc1 1.93%
CCN1c2cc(C(=O)NCc3ccncc3)ccc2C(=O)N2CCCCC21 (centres undefined) -12.3%
Cc1cc(C(=O)NC[C@@H]2OC[C@@]3(C)[C@H]4CC[C@@H](O)[C@@H](CC(=O)N5CCCC5)[C@]4(C)CC[C@H]3O2)no1 8.32%
Cc1ccc(OC(C)c2nc(-c3cccnn3)no2)cc1C (centres undefined) -4.27%
Fc1ccccc1CN1CCCC2(CCN(c3cnccn3)C2)C1 (centres undefined) -2.42%
CN1C[C@@H](NC(=O)CC(C)(C)CC(=O)O)C[C@H]1c1nc(-c2ccccn2)no1 10.1% [at 57.5 µM]
Cc1ccc(CN2CCCCCCNC(=O)[C@@H]3C[C@@H](C(=O)NCCc4cnc[nH]4)C[C@@H]32)o1 -2.22%
CCN1CCC(N2CCC3(CC2)CC2C(=O)N(CC)C(=O)N2C3)CC1 (centres undefined) 16.5%
CCC(=O)N1CCc2sc(C(=O)N3CCN(c4cccc(Cl)c4)CC3)cc2C1 -0.0197%
O=C(Nc1ccccc1)NC1CCN(CCn2nc3n(c2=O)CCCC3)C1 (centres undefined) 5.55%
Cc1ccc(CN2CCC([C@@H]3CNC[C@H]3CO)CC2)s1 45.9%
COc1cccc(CCNC(=O)c2c(C)noc2-c2ccco2)c1 5.94%
COCc1noc([C@@H]2CN(C(=O)C3CC=CCC3)C[C@H]2C(N)=O)n1 (some centres undefined) -0.867%
O=C1CCN(C(=O)CCc2nc3ccccc3s2)CCCCCCN1 23.1%
Cc1nc(-c2cn(C3CCCN(C(=O)c4ccc(Cl)s4)C3)nn2)no1 (centres undefined) 3.08%
O=C(C1CCCC1)N1CC2(CCN(Cc3ccc(Cl)cc3)C2)Cc2ccccc21 (centres undefined) -3.84%
CCCN1CCC(N2C[C@H]3OC(=O)N(CCc4cccc(Cl)c4)[C@H]3C2)CC1 15.5%
CCc1cccc(-n2nnnc2N2CCN(C(=O)Cc3ccc(C)c(F)c3)CC2)c1 0.125%
COc1ccc(OC)c(-c2cc(Cl)c3c(c2)CC(CNC(=O)c2c(F)cccc2F)O3)c1 (centres undefined) 0.991%
CN(C)c1cccc(-c2cnc(Nc3cnccn3)c3c2CCO3)c1 -0.306% [at 57.5 µM]
Cc1cc2ncc(C(=O)NC(C)CCc3ccccc3)cn2n1 (centres undefined) 8.7% [at 57.5 µM]
COCc1cc(C[C@@H]2CC[C@H](O)[C@@H](CNCc3ccc(Cl)cc3)O2)no1 32.3% [at 57.5 µM]
O=C(c1ccccc1OCC1CCCNC1)N1CCOCC1 (centres undefined) 42.4%
COc1ccccc1CCN1CCCC(CN(C)C(=O)CN2C(=O)CNC2=O)C1 (centres undefined) 4.05%
CCn1ccnc1CNC(=O)c1cc(OC)ccc1OC1CCN(C(=O)C2CC2)CC1 29%
Cc1ccccc1-c1cnc2[nH]cc(CC(=O)N3CCOCC3)c2c1 12.1% [at 57.5 µM]
O=C(C[C@@H]1C[C@H]2O[C@H](CNC3CCOCC3)[C@@H](O)[C@H]2O1)N1CCC(F)(F)C1 4.71% [at 57.5 µM]
CNC(=O)N1CCC(C2CCN(C(=O)c3cnn(C)c3)C2)CC1 (centres undefined) 50.7%
COc1ccc2cc1Nc1ccc(cc1)C[C@H](NCc1ccc(C)o1)C(=O)N(C)[C@H](C(=O)NCCC(C)C)C2 4.93%
Cc1nnnn1CC(=O)N1CCCC(c2ccccc2)(c2ccccc2)C1 4.78%
CC#CC(=O)N1CCCC(C(=O)Nc2ccc(-c3cccc(OC)c3)cc2)C1 (centres undefined) 13.9%
O=C(N[C@H]1C[C@@H](CO)N(CC2CCCCC2)C1)c1cccnc1 0.266%
CN(C)C[C@H]1O[C@H](Cc2cc(CN(C)Cc3ccccc3)on2)CC[C@@H]1O -1.96% [at 57.5 µM]
COC(=O)N(C)Cc1cccc(N2CCN(S(=O)(=O)c3cccc4ccccc34)CC2)c1F 23.6%
COc1ccc2c(C)c(C(=O)N3CCCCC3c3cc(C)on3)oc2c1 (centres undefined) 54.4%
CCOc1ccc(N(CC)C(=O)c2ccc3c(c2)N(S(C)(=O)=O)CC3)cc1 0.156%
COCCN(Cc1nccs1)Cc1cn[nH]c1-c1ccc(F)cc1 29.8%
O=C(c1ccc(Br)o1)N1C[C@@H](CO)[C@H](c2ccncc2)C1 -3.66%
COc1cccc(C(=O)N2CCC(C(NC(=O)CC(C)C)C(=O)NCC(C)C)CC2)c1 (centres undefined) -2.17%
CCOC(=O)N1CCC(NC)CC1 14.2% [at 57.5 µM]
O[C@H]1[C@H](NCc2ccco2)[C@H]2CO[C@H](O2)[C@@H]1N1CCC(Cc2ccccc2)CC1 -4.57% [at 57.5 µM]
c1csc(CN2CCC(Oc3ccccc3-c3nc(-c4cnccn4)no3)C2)c1 (centres undefined) 3.44%
Cc1ccc(-c2cc(N3CCCN(C(=O)c4ccccc4F)CC3)n[nH]2)cc1C 10.7%
CN1CCN(C(=O)C2CCCCC(=O)N2)CC1 (centres undefined) 18.1%
O=C(NCc1ccc(F)cc1)c1nc2sccn2c1Br -1.31%
O=C(COc1ccccc1)NCC1CCCCC(=O)N1 (centres undefined) -0.178%
COc1ccc(CN2Cc3[nH]cnc3C[C@H]2C(=O)N2CCC(Cc3ccccc3)CC2)cc1 6.6%
Cc1ccc(C)c(NC(=O)N2CCC(n3cnnc3C3CC3)C2)c1 (centres undefined) -1.9%
COC1CCCN(c2cc(-c3cccnc3)nc3c(C)noc23)C1 (centres undefined) 12.9% [at 57.5 µM]
CCn1cc(C(=O)N2C[C@H](CO)C[C@H](CN3CCCC3)C2)c(C)n1 -2.87%
COc1ccc(-c2noc(C(=O)NC(C)C)c2[C@H](C)O)cc1 0.0539% [at 57.5 µM]
OCC1CN(c2ncccn2)CC12CCN(Cc1ccsc1)CC2 (centres undefined) 5.64%
COc1ccc(C(=O)N2CC(=O)N(c3ccc(C)cc3)CC2C)c(OC)n1 (centres undefined) -0.619%
CC1CCN(C(=O)CN2C(=O)NC3(CCCCC3)C2=O)CC1 0.688%
COc1ccc(NC(=O)CC2CCCCN(C)C2=O)cc1OC (centres undefined) 2.39%
Cc1cc(C)n(CCC(=O)N2CCC(C3CCN(S(C)(=O)=O)CC3)C2)n1 (centres undefined) -0.0018%
CC(C)CN(Cc1cccnc1)C1CN(S(=O)(=O)Cc2ccccc2F)C1 -3.56%
O=C(NC[C@H]1OC[C@@H](NCc2ccccc2O)[C@@H]1O)c1ccc(F)cc1 -1.63% [at 57.5 µM]
O=C1NC(=NC2CCCCC2)C2(CCN(CC3CCCCC3)CC2)N1c1cc(F)cc(F)c1 5.03%
O=C(Cc1ccc(C(F)(F)F)cc1)N1CC(COc2ccccc2)C2(C1)CN(C(=O)c1cn[nH]c1)C2 (centres undefined) 3.36%
O=C(N1CCOCC1)N1C2CCC1CN(c1ccc(C(F)(F)F)cc1)C2 1.43%
CC(=O)NC[C@H]1CCN(Cc2ccc(Cl)cc2F)C[C@H]1N(C)C -2.48%
CCc1n[nH]c(CC2CCN(C(=O)C3CC3)CC2)n1 -8.39%
Cc1nc(CC(=O)N2CCCC3(CCC(=O)N(CCC(C)C)C3)C2)cs1 (centres undefined) -1%
Cc1noc(-c2ccc(N3CCN(Cc4nccn4C)CC3)nc2)n1 10.1%
Cc1ccc(C2(O)CCN(C(=O)CCC3NC(=O)NC3=O)CC2)nc1 (centres undefined) -0.522%
O=C(c1ccc(-c2ccc(N3CCCCCC3)nc2)cc1)N1CCCC1 66.4%
CNC(=O)[C@@H]1CN(C(=O)c2cccc(C)n2)C[C@H]1COC 19.6%
O=C(c1ccncc1)N1CC(Oc2ccc(-c3noc(-c4ccccc4)n3)cc2)C1 30.5%
Cc1ccc(CNC(=O)CN2C(=O)C(c3ccccc3)=NC23CCCCC3)cc1 10.2%
FC(F)(F)c1ccc(N2C3CCC2CN(Cc2ccc(-c4cccs4)cc2)C3)cc1 -11.4%
C=CCNC(=O)N[C@H]1C[C@H]2C(=O)Nc3ccc(/C=C/c4ccc(OC)cc4)cc3C(=O)N2C1 10%
COc1ccc(-c2cc(N3CCC(NC(=O)c4ccncc4)C3)n[nH]2)cc1 (centres undefined) 11.6%
O=c1ccc(NS(=O)(=O)c2ccccc2)c2n1C[C@H]1C[C@@H]2CN(S(=O)(=O)c2ccccc2)C1 25.2%
COc1cccc([S+](=O)([O-])N2CCC3(CC(C)=NO3)C2)c1 (centres undefined) 5.53% [at 57.5 µM]
Cc1cc(C(=O)N2CCCn3ccnc3C2c2ccccc2)n(C)n1 (centres undefined) -2.37%
O=C(c1cnccn1)N1CCN2C(=O)N(C3CCOCC3)C[C@H]2C1 1.38% [at 57.5 µM]

A section from further up:
Activity % (negative = inhibition), inactive:
O[C@H]1[C@H](NCc2ccco2)[C@H]2CO[C@H](O2)[C@@H]1N1CCC(Cc2ccccc2)CC1 -4.57% [at 57.5 µM]
c1csc(CN2CCC(Oc3ccccc3-c3nc(-c4cnccn4)no3)C2)c1 (centres undefined) 3.44%
Cc1ccc(-c2cc(N3CCCN(C(=O)c4ccccc4F)CC3)n[nH]2)cc1C 10.7%
CN1CCN(C(=O)C2CCCCC(=O)N2)CC1 (centres undefined) 18.1%
